Values from PubChem BioAssay AID1259308 (NCATS, 2017)

Test: 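Genes whose loss raises luciferase production in HEK293 cells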 (primary screen)
Cell system: human HEK293 embryonic kidney cells stably expressing firefly luciferase (HEK-CMV-Luc2-Hygro)
Reagent: single siRNA against human genes, 0.8 pmol siRNA per well
Duration: 72 h
Detection: 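Reporter luminescence and viable-cell signal on separate replicate plates, given as percent of non-targeting control and median/MAD z-scores, plus per-cell luciferase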
Direction: total luciferase, z-score and total luciferase, % of control: higher = more reporter protein produced; luciferase per cell, z-score: higher = more reporter output per viable cell
Hit rule: 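An siRNA counts as active if its total luciferase robust z-score exceeds 3; genes with two or more such siRNAs out of three were retested with fresh siRNAs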
Calls: active = raised luciferase; inactive = no rise
The whole screen tested about 59,000 reagents; below is a random part of them. In the full data, about 1,510 (2.6%) are marked active. 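Calls use total luciferase alone and ignore viability, so some active siRNAs may act by altering cell number.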 Reagents against one gene are numbered here. Further read-outs or replicates are left out here.

| target gene | siRNA no. | total luciferase, z-score | total luciferase, % of control | luciferase per cell, z-score | activity call |
| --- | --- | --- | --- | --- | --- |
| COMMD3 | 1 | 0.194 | 85.7 | 0.224 | inactive |
| COMMD3 | 2 | -0.783 | 66.3 | -1.04 | inactive |
| COMMD3 | 3 | -0.241 | 77.1 | -0.425 | inactive |
| DPCD | 1 | -1.17 | 58.6 | -1.16 | inactive |
| DPCD | 2 | 0.201 | 85.9 | -0.0431 | inactive |
| DPCD | 3 | 0.256 | 87 | 0.256 | inactive |
| DEDD2 | 1 | -0.772 | 66.5 | -0.269 | inactive |
| DEDD2 | 2 | -2.7 | 28.3 | -1.39 | inactive |
| DEDD2 | 3 | -0.129 | 79.3 | -0.138 | inactive |
| PRSS55 | 1 | 0.349 | 88.8 | 0.462 | inactive |
| PRSS55 | 2 | 0.268 | 87.2 | -0.586 | inactive |
| PRSS55 | 3 | 3.11 | 144 | 1.28 | active |
| PCDHB16 | 1 | 0.701 | 95.8 | 0.462 | inactive |
| PCDHB16 | 2 | -1.54 | 51.3 | -1.61 | inactive |
| PCDHB16 | 3 | -0.519 | 71.6 | 0.351 | inactive |
| MMP10 | 1 | 0.0117 | 82.1 | -0.157 | inactive |
| MMP10 | 2 | -0.345 | 75 | -0.729 | inactive |
| MMP10 | 3 | -0.21 | 77.7 | -0.148 | inactive |
| EIF3J-DT | 1 | 0.698 | 95.8 | 0.644 | inactive |
| EIF3J-DT | 2 | -0.883 | 64.3 | 0.489 | inactive |
| EIF3J-DT | 3 | 0.183 | 85.5 | 0.419 | inactive |
| DNAJC22 | 1 | 0.376 | 89.4 | -0.237 | inactive |
| DNAJC22 | 2 | 2.12 | 124 | 1.77 | inactive |
| DNAJC22 | 3 | 1.74 | 117 | 0.814 | inactive |
| DYNC2H1 | 1 | -0.0379 | 81.1 | -0.902 | inactive |
| DYNC2H1 | 2 | -0.655 | 68.9 | -0.916 | inactive |
| DYNC2H1 | 3 | -2.4 | 34.1 | -1.73 | inactive |
| ZNF141 | 1 | 0.201 | 85.9 | 0.116 | inactive |
| ZNF141 | 2 | 0.588 | 93.6 | 0.357 | inactive |
| ZNF141 | 3 | -0.634 | 69.3 | -0.756 | inactive |
| TRIM17 | 1 | 1.68 | 115 | 1.72 | inactive |
| TRIM17 | 2 | 0.441 | 90.7 | -0.429 | inactive |
| TRIM17 | 3 | 1.17 | 105 | 0.577 | inactive |
| SNX19P3 | 1 | 0.273 | 87.3 | -0.264 | inactive |
| SNX19P3 | 2 | -1.18 | 58.4 | -0.379 | inactive |
| SNX19P3 | 3 | 0.02 | 82.3 | 0.362 | inactive |
| SNX19P3 | 4 | 1.44 | 111 | 0.782 | inactive |
| SNX19P3 | 5 | -0.713 | 67.7 | -0.35 | inactive |
| SNX19P3 | 6 | -1.89 | 44.3 | -1.41 | inactive |
| SNX19P3 | 7 | 2.03 | 122 | 1.25 | inactive |
| SNX19P3 | 8 | 0.707 | 95.9 | 0.492 | inactive |
| SNX19P3 | 9 | 0.819 | 98.2 | 0.384 | inactive |
| GLRA2 | 1 | -0.0365 | 81.2 | 0.779 | inactive |
| GLRA2 | 2 | -0.898 | 64 | -1.34 | inactive |
| GLRA2 | 3 | 0.28 | 87.5 | 0.913 | inactive |
| TRPV3 | 1 | -0.681 | 68.3 | -0.233 | inactive |
| TRPV3 | 2 | 0.798 | 97.8 | 0.967 | inactive |
| TRPV3 | 3 | -0.287 | 76.2 | -0.759 | inactive |
| FXN | 1 | 1.58 | 113 | 1.64 | inactive |
| FXN | 2 | -2.23 | 37.5 | -2.34 | inactive |
| FXN | 3 | -0.0624 | 80.6 | -0.0834 | inactive |
| ERLEC1 | 1 | 1.3 | 108 | 2.33 | inactive |
| ERLEC1 | 2 | 0.0729 | 83.3 | -0.138 | inactive |
| ERLEC1 | 3 | -0.622 | 69.5 | -0.953 | inactive |
| PPP2R2C | 1 | -0.252 | 76.9 | 0.273 | inactive |
| PPP2R2C | 2 | -0.669 | 68.6 | -1.77 | inactive |
| PPP2R2C | 3 | 0.534 | 92.5 | 0.176 | inactive |

Entries above marked active:
| target gene | siRNA no. | total luciferase, z-score | total luciferase, % of control | luciferase per cell, z-score | activity call |
| --- | --- | --- | --- | --- | --- |
| PRSS55 | 3 | 3.11 | 144 | 1.28 | active |
